In patent publication US20080063601A1, “Compositions and methods relating to polycystic kidney disease” (priority 2004, published 2008):

Test system: Pkd1^−/− murine model of polycystic kidney disease
Assay type: in vivo
Conditions: 0.07 mg/kg/day i.p. to pregnant mice, E10.5 until birth
Procedure: As per approved IACUC animal protocol, Pkd1^+/−/Pkd1^+/− mice were mated and pregnant mice were divided into control (DMSO) or experimental (triptolide) groups. A total volume of 100 μl of PBS with no more than 5% DMSO or DMSO/0.07 mg/kg/day triptolide was injected i.p. with a 28 G ½ insulin syringe. Mice were weighed and injected starting at E10.5 until birth. All pups were examined for length and developmental staging such as whisker formation. Kidneys were harvested, weighed, and fixed in 4% paraformaldehyde before histological preparation.
Kidneys were prepared by sagittal cross-sectioning and hematoxylin and eosin staining. All kidneys were photographed under the same magnification (4×) and cystic burden was computed using Image J analysis software (NIH). The area of cysts within the total area of the kidney (pixels) was calculated as a final percentage of cystic burden in the kidney. Immunohistochemical analysis of active caspase-3 was completed as per manufacturer's protocol.
Following successful Pkd1^+/− Pkd1^+/− matings, 0.07 mg/kg/day of triptolide or DMSO control was injected i.p. into pregnant mice until they gave birth. All pups were assessed for viability, length, developmental staging, and wet kidney weight. A total of 59 pups from DMSO treated females and 100 pups from triptolide treated females were examined for multiple parameters, such as genotypic distribution, developmental stage at time of birth, and average kidney weights (Table 1). […] Approximately 20% of all Pkd1^−/− mice were born alive from each treatment group. However, severe edematous abnormalities were obvious upon necropsy.

CC(C)[C@]12O[C@H]1[C@@H]1O[C@]13[C@]1(O[C@H]1C[C@H]1C4=C(CC[C@@]13C)C(=O)OC4)[C@@H]2O [triptolide]
Total Pkd1^+/+ (share of pups): 33 (33%) | Total Pkd1^+/− (share of pups): 46 (46%) | Total Pkd1^−/− (share of pups): 18% | Total Pkd1^−/− (share of pups) (listed as Triptolide): 18 (18%)

Read-outs that look alike come from different tables or passages of the source.
